Results reported in patent US20160046678A1 (ZYNGENIA, published 2016).
No constants are given. Whether binding was seen depends on the method and setting. Some results given as binding are weak or reduced against the parent protein; the word gives no strength.

By UniProt entry, the sequences of proteins in these tests, tags left out. Residues count along the entry.
UniProt P21860, residues 20-643: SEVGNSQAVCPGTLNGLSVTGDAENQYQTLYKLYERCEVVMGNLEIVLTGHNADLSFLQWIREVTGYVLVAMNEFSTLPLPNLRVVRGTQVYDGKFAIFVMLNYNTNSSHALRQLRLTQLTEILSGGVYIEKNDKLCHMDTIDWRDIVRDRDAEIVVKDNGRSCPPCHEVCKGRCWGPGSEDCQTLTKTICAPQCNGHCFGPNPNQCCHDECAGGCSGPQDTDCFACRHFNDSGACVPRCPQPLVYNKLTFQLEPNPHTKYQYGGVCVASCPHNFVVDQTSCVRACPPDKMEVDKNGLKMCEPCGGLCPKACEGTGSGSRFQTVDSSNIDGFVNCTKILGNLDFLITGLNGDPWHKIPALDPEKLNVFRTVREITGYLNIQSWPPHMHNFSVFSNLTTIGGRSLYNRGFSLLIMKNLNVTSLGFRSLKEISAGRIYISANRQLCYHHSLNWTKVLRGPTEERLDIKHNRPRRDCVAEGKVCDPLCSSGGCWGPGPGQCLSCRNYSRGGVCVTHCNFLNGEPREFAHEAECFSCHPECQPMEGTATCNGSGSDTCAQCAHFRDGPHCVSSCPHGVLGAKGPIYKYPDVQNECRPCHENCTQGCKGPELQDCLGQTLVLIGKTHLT

target: ErbB3 (UniProt P21860); assay: MRD screen, Example 48

binding, binds:
FKFFMCQTYPSEKWHVCVEKL [EGC721]
VIDPYCPFLNPIWKEQCQVRT [EGC717]
PSEPYCPFVNPTWLDECIARS [EGC724]
HSQPYCPFQNPTWYEQCIART [EGC681]
SSEPYCPFLNPLWHEQCLARI [EGC722]
DQVRCPFQNPVWWSHCMYLL [EGC754]
VGEPYCPFMNPIWKEQCILRS [EGC727]
PDSWCHTLYWSLLHCARQE [EGC686]
DQVRCPFQNPVWWSHCMYLL [EGC772]
SDFFMCQVYPSQKWHVCVKSL [EGC684]
ARQPYCPFLNPTWKNECMARS [EGC703]
LSDVYCPFVNPTWKAECIARS [EGC683]
TRYSMCQVYPSLRWHVCVENL [EGC676]
ADSWCHTLYWNLLYCANQE [EGC694]
ADSWCHTLFWQLQHCVWQE [EGC707]
RSEPYCPFLNPTWKDQCMART [EGC716]
SWFFMCQIYPSLKWHVCVETL [EGC696]
LGEPYCPFLNPTWKAQCLYMS [EGC678]
SKFFMCQVYPSKKWHVCVEAL [EGC718]
ADSWCHTLYWQLLHCVSQE [EGC736]
AREPYCPFLNPIWKAECVARY [EGC723]
IAILTALSLTLSGRTSASSE [EGC705]
HRAPCFSCTACRQPCFSLT [EGC776]
SSEPYCPFLNPIWKNECLARQ [EGC679]
PSEPYCPFLNPIWKAECIART [EGC704]
DQVRCPFQNPVWWSHCMYLL [EGC764]
LNFSMCQVYPSYKWHVCVGTL [EGC708]
TSEPYCPFDNPTWKARCLAML [EGC702]
DQVRCPFQNPVWWSHCMYLL [EGC745]
YTKHCQRLPTYKICNLFM [EGC752]
WRDPYCPFLNPIWKEQCIARY [EGC715]
PISPYCPFLNPIWYEECIARS [EGC726]
ASEPYCPFLNPIWYEQCINRT [EGC725]
LSEPYCPFQNPTWKEQCVARS [EGC688]
SREPYCPFLNPTWYDECIART [EGC700]
SEPYCPFLNPTWKSQCIART [EGC783]
STEPYCPFLNPIWKDACIARH [EGC712]
YSAPDCPFVNPIWKNACIARY [EGC706]
VIEPYCPFLNPTWKAECLARS [EGC711]
VREPYCPFLNPIWKDQCIART [EGC691]
LRYYICQIYPSEKYHVCVDTL [EGC710]
ASEPYCPFLNPIWKDQCIART [EGC692]
DQVRCPFQNPVWWSHCMYLL [EGC759]
MEFFMCQVYPSEKWHVCVAKL [EGC709]
GGDPYCPFLNPTWKAECIART [EGC690]
LPFFMCQVYPSKSWHVCVETS [EGC687]
DQVRCPFQNPVWWSHCMYLL [EGC746]
TDSWCHTLYWQLHHCAILE [EGC765]
STFYMCKVYPSQRWHVCVDTL [EGC698]
DQVRCPFQNPVWWSHCMYLL [EGC763]
IKFFMCQVYPSELWHVCVQKQ [EGC719]
RSEPYCPFLNPIWKEHCINRS [EGC680]
QSEPYCPFLNPMWKEQCIVRI [EGC701]
ADSWCHTLYWQLLHCVNQE [EGC729]
SSEPYCPFQNPTWKDQCIARN [EGC693]
SNEPYCPFLNPSWKDACLQRT [EGC682]
DQVRCPFQNPVWWSHCMYLL [EGC737]
TTFFMCQLYPSGNWHVCTETL [EGC720]
YQVTCPFLNPPWWSHCMYLL [EGC771]
ADSWCHTLYWQLQHCLSQE [EGC755]
DQVRCPFQNPVWWSHCMYLL [EGC770]
ADSWCHTLFWNLKHCLIQE [EGC689]
YQVTCPFFNPLWWSHCMYLL [EGC777]
